The source of these data is publication PMC6272893, “NO-Releasing Enmein-Type Diterpenoid Derivatives with Selective Antiproliferative Activity and Effects on Apoptosis-Related Proteins” (Molecules, 2016).

This data set is described as follows: Griess assay, NO-releasing ability. Particulars: 100 μM compound, time point of 60 min. Background: Griess reagent forms a coloured azo dye with nitrite.
As to `C=C1C(=O)C23C(=O)OC4CCC(C)(C)C5C(=O)OCC45C2CCC1C3OC(=O)CCC(=O)OCCOc1no[n+]([O-])c1S(=O)(=O)c1ccccc1` (stereo not drawn) [Compound 10a], the “NO produced (Griess assay)” value came to 22.2 µmol/L.
Regarding `C=C1C(=O)C23C(=O)OC4CCC(C)(C)C5C(=O)OCC45C2CCC1C3OC(=O)c1ccccc1C(=O)OCCOc1no[n+]([O-])c1S(=O)(=O)c1ccccc1` (stereo not drawn) [Compound 10c], the “NO produced (Griess assay)” value is 36.2 µmol/L.
Consider `C=C1C(=O)C23C(=O)OC4CCC(C)(C)C5C(=O)OCC45C2CCC1C3OC(=O)c1ccccc1C(=O)OCCCOc1no[n+]([O-])c1S(=O)(=O)c1ccccc1` (stereo not drawn) [Compound 10f], for which the “NO produced (Griess assay)” value is 33.7 µmol/L.
